Experimental data: PubChem BioAssay AID1224830 (NIAID, 2016)
Test: 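Genes whose knock-down alters the TNF-alpha reporter response to LPS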 (primary screen). Cells: human THP-1 monocytic leukaemia cells, TNF dual-luciferase reporter clone, PMA-differentiated to macrophage-like cells. Knock-down reagent: siRNA pool against human genes, 50 nM. Time to read-out: LPS for 4 h, given about 3 days after siRNA transfection. Challenge: bacterial LPS (TLR4 ligand), 10 ng/ml. Detection: 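Ratio of firefly to renilla light, scaled to the plate median and expressed as a robust z-score per replicate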. Reading the numbers: TNF reporter robust z-score: higher = stronger TNF reporter response to LPS. Rule for the call: 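Each well counts as active if its z-score is over 2.8 or under -1.5; controls are left without a call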.
In all, the deposit lists about 18,000 reagents; below is a random part of them. Of all reagents, about 2,900 (16%) are marked active. 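Calls are made per well; low scores hint the gene aids the LPS response, high scores that it dampens it.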 Repeated entries: four replicate wells of each siRNA pool. No sequences are given here.

no.	gene symbol	TNF reporter robust z-score	Call
1	RSPO2	-0.97	inactive
2	RSPO2	-0.82	inactive
3	RSPO2	-0.52	inactive
4	RSPO2	-1.11	inactive
5	MTMR6	-0.22	inactive
6	MTMR6	0.91	inactive
7	MTMR6	0.96	inactive
8	MTMR6	0.79	inactive
9	WASF3	2.58	inactive
10	WASF3	-0.01	inactive
11	WASF3	0.27	inactive
12	WASF3	1.96	inactive
13	LTA	-0.65	inactive
14	LTA	-0.41	inactive
15	LTA	-0.52	inactive
16	TSR3	0.31	inactive
17	TSR3	0.28	inactive
18	TSR3	-1.02	inactive
19	TSR3	-0.52	inactive
20	LRRC8D	-1.43	inactive
21	LRRC8D	-2.18	active
22	LRRC8D	-2.09	active
23	GABPA	-0.06	inactive
24	GABPA	-0.86	inactive
25	GABPA	0.18	inactive
26	GABPA	1.09	inactive
27	TAF6	0.33	inactive
28	TAF6	-0.1	inactive
29	TAF6	0.13	inactive
30	TAF6	-0.12	inactive
31	MICALL1	0.29	inactive
32	MICALL1	0.69	inactive
33	MICALL1	0.17	inactive
34	MICALL1	1.8	inactive
35	C20orf96	-1.04	inactive
36	C20orf96	-0.71	inactive
37	C20orf96	-0.8	inactive
38	C20orf96	-0.92	inactive
39	RXRG	-0.19	inactive
40	RXRG	-0.46	inactive
41	RXRG	-0.09	inactive
42	RXRG	-0.79	inactive
43	HOXB5	2.46	inactive
44	HOXB5	1.18	inactive
45	HOXB5	0.58	inactive
46	HOXB5	1.44	inactive
47	FSD2	-1.1	inactive
48	FSD2	-1.03	inactive
49	FSD2	-0.42	inactive
50	FSD2	-0.03	inactive
51	CST7	-0.02	inactive
52	CST7	-0.05	inactive
53	CST7	-0.13	inactive
54	POP4	1.74	inactive
55	POP4	2.59	inactive
56	POP4	3.4	active
57	POP4	4.9	active
58	PYHIN1	-0.9	inactive
59	PYHIN1	-0.03	inactive
60	PYHIN1	0.02	inactive
61	PYHIN1	-0.15	inactive
62	FRAT2	2.12	inactive
63	FRAT2	1.88	inactive
64	FRAT2	2.29	inactive
65	FRAT2	3.23	active
66	RRP36	-0.08	inactive
67	RRP36	2.13	inactive
68	RRP36	0.64	inactive
69	RRP36	1.37	inactive
70	NSD2	-0.61	inactive
71	NSD2	-0.83	inactive
72	NSD2	-0.25	inactive
73	NSD2	0.43	inactive
74	NTNG2	-1.09	inactive
75	NTNG2	-0.73	inactive
76	NTNG2	-1.23	inactive
77	NTNG2	-1.55	active
